These results are taken from patent US4223016A (Beecham Group Limited, priority 1977, dated 1980).

Where no end group is shown, it is not given here.

A short description of the first data set: general procedure: hybrid (solid and solution phase) peptide synthesis; 0.47 mM/g glycine substituted Merrifield Resin; DCCI. The conditions noted are these: coupling step.
Turning to “BOC.Lys(Z)Thr(Bzl)Lys(Z)GlySer(Bzl)GlyPhePheValPheOMe”, the step yield was determined as 61%. On the same count and under the same terms, for BOC.Ser(Bzl)GlyPhePheOMe the value was 67%; for BOC.Ser(Bzl)PhePheOBz, 72%; for ZProArg(NO2)Lys(Z)Thr(Bzl)Lys(Z)GlyOMe, 54%. Substance “Z.Arg(Z)2 Lys(Z)Thr(Bzl)Lys(Z)GlySer(Bzl)GlyPhePheOMe” registered a step yield of 78%. On the same count and under the same terms, for BOC.Arg(NO2)Lys(Z)Thr(Bzl)Lys(Z)GlyOMe the value was 71%. “ZLys(Z)Thr(Bzl)Lys(Z)GlySer(Bzl)GlyPhePheValPheOBz” showed a step yield of 85%. Consider “ZProArg(NO2)Lys(Z)Thr(Bzl)Lys(Z)GlySer(Bzl)GlyPhePheOMe”, for which the step yield is on record as 88%. On to BOC.Ser(Bzl)GlyPhePheValPheOBz, for which the step yield is on record as 91%.

Substance BOC.Ser(Bzl)GlyPhePheValPheOMe yielded a step yield of 93%. Still for that read-out and setting: to “BOC.Lys(Z)Thr(Bzl)Lys(Z)GlySer(Bzl)GlyPhePheOMe” belongs 50%; to ZLys(Z)Thr(Bzl)Lys(Z)GlyOMe, 50%; to BOC.PhePheValPheOMe, 80%. On the same count and under the same terms, to “BOC.Lys(Z)Thr(Bzl)Lys(Z)GlySer(Bzl)GlyPhePheOBz” belongs 85%.

Staying with this data set, now noted: coupling step; run 1.
In turn, BOC.Lys(Z)Thr(Bzl)Lys(Z)GlyOMe displayed a step yield of 84%.

The same data set, now with this note: coupling step; run 2.
Regarding BOC.Lys(Z)Thr(Bzl)Lys(Z)GlyOMe, the step yield turned out to be 74%.

The data set is the same for the next values; noted with them: late stage modification step.
KTKGSGFF-OMe had a step yield of 46%. For KTKGSGFFVF-OH, the step yield came to 23%.

Substance RKTKGSGFF-OMe had a step yield of 26%.

On to Ser(Bzl)GlyPhePheOMe.HCl (II), for which the step yield was 96%. The substance ZProArg(NO2)Lys(Z)Thr(Bzl)Lys(Z)GlyOH came in with a step yield of 50%. Still for that read-out and setting: for Arg(NO2)Lys(Z)Thr(Bzl)Lys(Z)GlyOMe.HCl the value was 92%; for PRKTKGSGFF-OMe, 34%; for Ser(Bzl)GlyPhePheValPheOBz.HCl, 94%. Same read-out and setting: to BOC.Lys(Z)Thr(Bzl)Lys(Z)GlyOSu belongs 15%; to ZLys(Z)Thr(Bzl)Lys(Z)GlyOH, 49%; to “Lys(Z)Thr(Bzl)Lys(Z)GlySer(Bzl)GlyPhePheOMe.HCl”, 52%.
